The target in this assay is thrombospondin-1 (human) (UniProt P07996). The experiment in a line: gel permeation chromatography on Sephadex G200 of 125I-heparin with rPF4 and TSP-1; association through heparin.

Chains of the proteins cited; added tags and fusions are not shown. Residues count along the entry.
UniProt P07996, residues 19-1170: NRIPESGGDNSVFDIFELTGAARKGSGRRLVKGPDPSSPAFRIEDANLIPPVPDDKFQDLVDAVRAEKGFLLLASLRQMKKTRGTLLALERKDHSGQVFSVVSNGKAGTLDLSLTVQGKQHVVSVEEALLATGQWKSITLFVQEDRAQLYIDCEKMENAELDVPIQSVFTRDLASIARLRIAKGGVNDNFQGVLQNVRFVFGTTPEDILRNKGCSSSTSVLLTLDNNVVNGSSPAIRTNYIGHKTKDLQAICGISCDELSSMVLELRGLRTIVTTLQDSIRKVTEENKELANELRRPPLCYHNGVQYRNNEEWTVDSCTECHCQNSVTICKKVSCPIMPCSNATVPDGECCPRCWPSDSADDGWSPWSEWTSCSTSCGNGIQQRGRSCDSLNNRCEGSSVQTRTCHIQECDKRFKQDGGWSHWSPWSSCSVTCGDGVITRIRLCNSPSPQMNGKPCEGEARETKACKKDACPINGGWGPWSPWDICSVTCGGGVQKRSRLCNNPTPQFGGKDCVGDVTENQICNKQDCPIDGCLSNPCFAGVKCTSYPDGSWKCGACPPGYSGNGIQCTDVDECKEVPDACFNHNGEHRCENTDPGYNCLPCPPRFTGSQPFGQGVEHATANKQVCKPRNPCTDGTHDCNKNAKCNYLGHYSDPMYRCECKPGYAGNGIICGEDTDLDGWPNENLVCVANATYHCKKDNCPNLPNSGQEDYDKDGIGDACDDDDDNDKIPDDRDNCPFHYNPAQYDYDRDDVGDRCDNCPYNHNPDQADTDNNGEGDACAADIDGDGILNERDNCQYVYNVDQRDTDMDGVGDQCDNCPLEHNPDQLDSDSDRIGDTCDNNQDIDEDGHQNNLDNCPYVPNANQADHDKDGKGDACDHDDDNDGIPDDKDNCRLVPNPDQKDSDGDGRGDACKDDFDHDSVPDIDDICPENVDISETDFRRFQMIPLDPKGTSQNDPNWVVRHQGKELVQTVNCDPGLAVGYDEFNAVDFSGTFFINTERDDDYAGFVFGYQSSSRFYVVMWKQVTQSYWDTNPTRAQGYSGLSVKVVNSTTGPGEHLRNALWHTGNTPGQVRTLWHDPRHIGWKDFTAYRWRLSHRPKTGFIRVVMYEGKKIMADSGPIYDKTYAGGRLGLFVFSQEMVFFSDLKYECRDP

Among the data in patent publication US20020197697A1 are binding values, retold here.

These are yes or no findings as the source states them, for the method shown. Some results given as binding are weak or reduced against the parent protein; the word gives no strength.

B1: recombinant platelet factor 4 (ligand, UniProt P02776 32-101, looked up)
chain: EAEEDGDLQCLCVKTTSQVRPRHITSLEVIKAGPHCPTAQLIATLKNGRKICLDLQAPLYKKIIKKLLES
With B1, the binding result was “binds”.
